Experimental data reported in article PMC7733509.
These are yes or no findings as the source states them, for the method shown. In cells and extracts the contact can be indirect. Some entries that bind do so weakly or less than the wild type.

Amino acid sequences for entries named in this document (tags omitted).
UniProt Q5DW34: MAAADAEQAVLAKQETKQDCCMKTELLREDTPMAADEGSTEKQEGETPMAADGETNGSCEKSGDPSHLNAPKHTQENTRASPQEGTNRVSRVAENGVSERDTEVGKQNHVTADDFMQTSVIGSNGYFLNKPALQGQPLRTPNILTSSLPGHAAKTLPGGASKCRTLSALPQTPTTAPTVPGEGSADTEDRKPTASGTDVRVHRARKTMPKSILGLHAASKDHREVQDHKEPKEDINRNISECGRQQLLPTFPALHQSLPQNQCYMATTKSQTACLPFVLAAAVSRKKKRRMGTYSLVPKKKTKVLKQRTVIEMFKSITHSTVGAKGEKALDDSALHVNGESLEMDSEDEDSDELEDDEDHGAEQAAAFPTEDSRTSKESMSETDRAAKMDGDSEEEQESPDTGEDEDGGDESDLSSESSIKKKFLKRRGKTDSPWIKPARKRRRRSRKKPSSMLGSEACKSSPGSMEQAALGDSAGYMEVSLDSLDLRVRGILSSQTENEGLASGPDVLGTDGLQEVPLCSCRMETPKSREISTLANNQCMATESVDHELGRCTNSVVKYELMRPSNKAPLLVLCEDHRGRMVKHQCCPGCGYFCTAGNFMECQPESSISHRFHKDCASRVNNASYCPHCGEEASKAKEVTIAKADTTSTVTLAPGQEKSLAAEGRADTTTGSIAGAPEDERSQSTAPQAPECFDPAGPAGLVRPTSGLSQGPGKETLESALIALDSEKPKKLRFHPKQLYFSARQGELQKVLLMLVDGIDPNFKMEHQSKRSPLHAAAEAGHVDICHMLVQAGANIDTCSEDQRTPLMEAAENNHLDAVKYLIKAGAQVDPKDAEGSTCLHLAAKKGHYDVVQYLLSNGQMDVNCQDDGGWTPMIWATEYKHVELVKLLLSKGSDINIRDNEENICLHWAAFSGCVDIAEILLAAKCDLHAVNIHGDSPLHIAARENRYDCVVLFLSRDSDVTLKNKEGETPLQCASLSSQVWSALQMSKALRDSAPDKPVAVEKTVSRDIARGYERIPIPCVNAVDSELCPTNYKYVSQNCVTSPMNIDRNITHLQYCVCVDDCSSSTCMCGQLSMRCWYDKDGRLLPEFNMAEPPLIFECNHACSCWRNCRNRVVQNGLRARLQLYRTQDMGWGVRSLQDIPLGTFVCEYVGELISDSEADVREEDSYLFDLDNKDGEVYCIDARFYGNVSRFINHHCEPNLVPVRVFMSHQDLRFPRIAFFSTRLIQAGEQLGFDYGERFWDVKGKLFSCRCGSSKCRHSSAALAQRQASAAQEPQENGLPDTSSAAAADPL
UniProt P70351: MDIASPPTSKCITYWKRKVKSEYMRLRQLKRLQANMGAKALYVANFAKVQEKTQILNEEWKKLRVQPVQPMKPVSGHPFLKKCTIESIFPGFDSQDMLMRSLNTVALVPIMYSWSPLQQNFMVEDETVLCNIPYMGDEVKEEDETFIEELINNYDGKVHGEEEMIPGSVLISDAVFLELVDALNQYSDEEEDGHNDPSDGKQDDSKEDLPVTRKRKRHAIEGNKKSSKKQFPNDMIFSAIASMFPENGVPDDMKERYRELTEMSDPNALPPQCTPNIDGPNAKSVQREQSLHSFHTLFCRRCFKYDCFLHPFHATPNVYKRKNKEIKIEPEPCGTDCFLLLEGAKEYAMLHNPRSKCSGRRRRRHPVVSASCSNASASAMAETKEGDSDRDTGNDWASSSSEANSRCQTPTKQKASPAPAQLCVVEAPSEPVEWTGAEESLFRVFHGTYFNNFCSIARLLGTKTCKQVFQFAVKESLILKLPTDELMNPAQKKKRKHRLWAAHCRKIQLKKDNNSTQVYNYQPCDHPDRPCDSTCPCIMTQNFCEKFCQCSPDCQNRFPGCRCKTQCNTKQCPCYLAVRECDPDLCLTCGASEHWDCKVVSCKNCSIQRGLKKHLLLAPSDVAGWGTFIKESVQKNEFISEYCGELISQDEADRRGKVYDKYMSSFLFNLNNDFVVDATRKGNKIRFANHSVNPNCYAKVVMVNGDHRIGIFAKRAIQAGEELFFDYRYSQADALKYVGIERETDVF
UniProt Q61188: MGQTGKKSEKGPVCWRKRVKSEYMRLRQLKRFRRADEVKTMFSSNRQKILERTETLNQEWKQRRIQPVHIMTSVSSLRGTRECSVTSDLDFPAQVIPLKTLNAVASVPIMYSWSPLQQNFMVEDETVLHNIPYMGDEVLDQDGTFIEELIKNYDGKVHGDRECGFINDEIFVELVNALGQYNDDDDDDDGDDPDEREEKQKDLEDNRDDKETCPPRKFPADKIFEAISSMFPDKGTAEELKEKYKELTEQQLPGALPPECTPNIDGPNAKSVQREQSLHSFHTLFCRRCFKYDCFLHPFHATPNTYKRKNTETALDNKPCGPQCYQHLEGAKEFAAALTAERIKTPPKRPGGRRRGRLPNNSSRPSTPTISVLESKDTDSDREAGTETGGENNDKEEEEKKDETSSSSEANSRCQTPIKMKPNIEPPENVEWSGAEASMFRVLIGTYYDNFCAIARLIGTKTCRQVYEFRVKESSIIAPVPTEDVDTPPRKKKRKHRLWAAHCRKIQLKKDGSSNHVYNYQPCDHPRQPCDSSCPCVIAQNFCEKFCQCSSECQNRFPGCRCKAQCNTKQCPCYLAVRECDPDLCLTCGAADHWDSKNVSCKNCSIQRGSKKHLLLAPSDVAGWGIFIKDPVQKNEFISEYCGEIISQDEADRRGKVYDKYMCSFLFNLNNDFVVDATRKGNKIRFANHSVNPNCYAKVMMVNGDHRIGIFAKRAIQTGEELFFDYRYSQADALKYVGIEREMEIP

Biological target: EHMT1-HA (mouse) (UniProt Q5DW34)
Test: co-IP; EHMT1-HA co-transfected into HEK293T cells with EZH1-Myc, EZH2-Myc or Myc-Vector; anti-HA used to precipitate EHMT1 and associated proteins; immunoblot

Row | Substance | binding
1 | EZH1-Myc (from UniProt P70351 1-747) | binds
2 | EZH2-Myc (from UniProt Q61188 1-746) | binds
